Columns and labels:
[1] = test system: endogenous specific binding proteins (FKBP) in whole blood; experiment: ACMIA assay for sirolimus: release of sirolimus from endogenous binding substances in spiked whole blood by releasing agent; conditions: releasing agent 10 μg/mL in pretreatment solution
Experimental: (§1) Testing was carried out using the DIMENSION® RxL analyzer, available from Siemens Healthcare Diagnostics Inc., Newark Del. The instrument was employed using ACMIA immunoassay technology. The ACMIA assay method is described in U.S. Pat. Nos. 7,842,475, 7,186,518, 5,147,529, 5,128,103, 5,158,871, 4,661,408, 5,151,348, 5,302,532, 5,422,284, 5,447,870, and 5,434,051, the disclosures of which are incorporated herein in their entirety. In the embodiment of the ACMIA method used herein and discussed in more detail below, competition between tacrolimus analog on chrome particles and tacrolimus in patient samples for antibody for tacrolimus conjugated to an enzyme (the “conjugate”) is utilized to determine the amount of tacrolimus in patient samples. Conjugate that binds to the tacrolimus analog on chrome particles is removed by magnetic separation. The enzymatic activity from the conjugate remaining in the supernatant is measured and is directly proportional to the amount of tacrolimus in the patient sample. […] The enzymatic activity observed when no chrome particle is present is indicative of the total amount of enzymatic activity in the conjugate.
(§2) Preparation of pretreatment reagent solution. This pretreatment solution was prepared to contain an amount of releasing agent, 6.8 mg/mL PIPES 1.5 sodium salt (buffer), 0.3 mg/mL EDTA disodium (clot prevention agent), 1.0 mg/mL saponin (hemolytic agent), 0.2% PROCLIN® 300 (preservative), 0.024 mg/mL neomycin sulfate (preservative) and 0.99 mg/mL NaN3, pH 6.5. The amount of releasing agent in each of the pretreatment reagent solutions was 10 μg/mL. The releasing agent concentration in the final reaction mixture was equivalent to 46.7 μg/mL of the analog added from the sample.
Preparation of anti-sirolimus antibody-β-galactosidase conjugate. […] The antibody conjugate solution contained approximately 7.5 μg/mL anti-sirolimus antibody-β-galactosidase conjugate, 30 mg/mL protease free bovine serum albumin, 0.126 mg/mL MgCl2, 0.03 mL/mL of ethylene glycol, 35.14 mg/mL PIPES 1.5 sodium salt, 50 mg/mL NaCl and beta-gal mutein (inactivated β-galactosidase), pH 6.5.
Magnetic chrome particle preparation. Sirolimus chrome particles (immunoassay solid phase) were prepared by conjugating sirolimus-biotin conjugate to streptavidin-coated chrome particle (prepared in a manner similar to that described in U.S. Pat. No. 7,842,475). The chrome particle reagent contained approximately 2.5 mg/mL sirolimus chrome particle slurry, 60.8 mg/mL trehalose dihydrate and 7.2 mg/mL CARBOWAX®.
(§3) Preparation of samples. Aliquots of a whole blood pool are spiked with an amount of sirolimus so that the resulting concentration of sirolimus in the whole blood samples in the calibrators is as set forth in Table 1 (0.0, 5.1, 10.1, 20.6 and 31.6 ng/mL). Aliquots of a whole blood pool are spiked with an amount of tacrolimus so that the resulting concentration of […] (0.0, 2.6, 5.3, 11.6 and 30.1 ng/mL).
(§4) Pretreatment of samples. A set of samples was treated as follows: To each sample was added an amount of the pretreatment reagent solution from above for displacing sirolimus in the sample from endogenous specific binding proteins. The samples were incubated at 37° C. for a period of 140 minutes. Subsequently, each sample was subjected to the aforementioned assay, which is further described below; and signal (mAU) was measured and related to a concentration of analyte that represents the amount of free analyte (analyte that is not bound by endogeneous binding substances plus analyte that was displaced from endogeneous binding substances) in the samples.
Assay. The ACMIA assay for sirolimus was carried out as follows: 15 μL of a whole blood sample from above was mixed with the pretreatment reagent solution from above (Displacer) (Table 1) in a vessel on the DIMENSION® RxL analyzer.

[2] = test system: endogenous specific binding proteins (FKBP) in whole blood; experiment: ACMIA assay for tacrolimus: release of tacrolimus from endogenous binding substances in spiked whole blood by releasing agent; conditions: releasing agent 10 μg/mL in pretreatment solution
Experimental: as §1, §2
Preparation of anti-tacrolimus antibody-β-galactosidase conjugate. Monoclonal anti-tacrolimus antibody (clone 1H6, see for example U.S. Pat. No. 7,078,495) is conjugated to β-galactosidase using a standard heterobifunctional SMCC (succinimidyl trans-4-(N-maleimidylmethyl)cyclohexane-1-carboxylate) linker according to known techniques. The antibody conjugate solution contains approximately 7.5 μg/mL anti-tacrolimus antibody-β-galactosidase conjugate, 30 mg/mL protease free bovine serum albumin, 0.126 mg/mL MgCl2, 0.03 mL/mL of ethylene glycol, 35.14 mg/mL PIPES 1.5 sodium salt, 50 mg/mL NaCl and beta-gal mutein (inactivated β-galactosidase), pH 6.5.
The chrome particle reagent contained approximately 2.5 mg/mL tacrolimus chrome particle slurry, 60.8 mg/mL trehalose dihydrate and 7.2 mg/mL CARBOWAX®.
as §3, §4
The above format for releasing an analyte (using the concentration of releasing agent (Displacer) shown) and conducting an assay for the analyte was repeated for samples containing tacrolimus.

[3] = sirolimus calibrator 10.1 ng/mL
[4] = sirolimus calibrator 20.6 ng/mL
[5] = sirolimus calibrator 31.6 ng/mL
[6] = tacrolimus calibrator 0.0 ng/mL
[7] = tacrolimus calibrator 2.6 ng/mL
[8] = tacrolimus calibrator 5.3 ng/mL
[9] = tacrolimus calibrator 11.6 ng/mL
[10] = tacrolimus calibrator 30.1 ng/mL

Compound	Instrument signal observed for calibrators ([1]; sirolimus calibrator 0.0 ng/mL)	Instrument signal observed for calibrators ([1]; sirolimus calibrator 5.1 ng/mL)	Instrument signal observed for calibrators [1, 3]	Instrument signal observed for calibrators [1, 4]	Instrument signal observed for calibrators [1, 5]	Instrument signal observed for calibrators [2, 6]	Instrument signal observed for calibrators [2, 7]	Instrument signal observed for calibrators [2, 8]	Instrument signal observed for calibrators [2, 9]	Instrument signal observed for calibrators [2, 10]
C=CC[C@@H]1/C=C(\C)C[C@H](C)C[C@H](OC)[C@H]2O[C@@](O)(C(=O)C(=O)N3CCCC[C@H]3C(=O)O[C@H](/C(C)=C/[C@@H]3CC[C@@H](O)[C@H](OC)C3)[C@H](C)[C@@H](O)CC1=O)[C@H](C)C[C@@H]2OC [Tacro, tacrolimus]	199 mAU	242 mAU	261 mAU	300 mAU	339 mAU	–	–	–	–	–
CO[C@H]1C[C@@H]2CC[C@@H](C)[C@@](O)(O2)C(=O)C(=O)N2CCCC[C@H]2C(=O)O[C@H]([C@H](C)C[C@@H]2CC[C@@H](O)[C@H](OC)C2)CC(=O)[C@H](C)/C=C(\C)[C@@H](O)[C@@H](OC)C(=O)[C@H](C)C[C@H](C)CCCCCC1C (stereo partly shown) [XI, hydrogenated sirolimus]	443 mAU	447 mAU	451 mAU	450 mAU	448 mAU	23 mAU	36 mAU	42 mAU	55 mAU	79 mAU
Diels-Alder adducts of 4-phenyl-1,2,4-triazoline-3,5-dione (PTAD) and sirolimus [Mixture V + VI]	223 mAU	281 mAU	317 mAU	359 mAU	395 mAU	26 mAU	42 mAU	51 mAU	66 mAU	89 mAU

— US9121859B2, “Compounds and methods for determination of FKBP-binding immunosuppressant drugs” (Siemens Healthcare Diagnostics Inc., priority 2012, dated 2015)
